The text below walks through data of US9802999 (VETERINAERINSTITUTTET, dated 2017).

Experiment [1] concerns the target T1, recombinant human FcγRIIb (Sino Biological) (human, UniProt P31994 43-217, limits assumed).
T1 construct: Bought reagent, added in solution at 1 µg/ml; The construct is not described; also called soluble recombinant FcγRIIb; FcgammaRIIb
T1 sequence (looked up): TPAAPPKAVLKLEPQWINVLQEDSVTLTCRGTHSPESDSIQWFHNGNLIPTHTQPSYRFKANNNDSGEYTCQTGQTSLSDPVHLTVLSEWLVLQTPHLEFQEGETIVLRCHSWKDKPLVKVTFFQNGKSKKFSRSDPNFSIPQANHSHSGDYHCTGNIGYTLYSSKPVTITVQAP
Description: ELISA, FPST immobilized, soluble recombinant human FcγRIIb 1 µg/ml added. The protocol: (§1) Proteins containing CP or a control protein, human serum albumin, were immobilized to the surface of the ELISA wells and binding of added soluble recombinant FcγRIIb was analysed.
(§2) CP, FPST, FP1, FP5 and control protein human albumin (Sigma Aldrich) were coated at 10, 5 and 2.5 µg/mL in 0.05 M carbonate-bicarbonate buffer, pH 9.6, (Sigma-Aldrich) on high binding flat bottomed, 96-well microplates (Corning Inc., Corning, USA) at 37° C. for 1 h (100 µL/well). Plates were blocked with 2.5% w/v bovine serum albumin in PBS (200 µL/well). Plates were washed and incubated with recombinant 1 µg/ml human FcγRIIb (Sino Biological) in PBS containing 0.05% Tween-20 (PBST) for 1 h at room temperature with gentle shaking. For detection of bound FcγRIIb, wells were first incubated with anti-FcγRIIb antibody (Sino Biological) and thereafter incubated with rabbit anti-mouse-HRP (Dako Cytomation). […] The reaction was stopped with 2 M H2SO4 (50 µL/well) and optical density was read at 450 nm. In between all steps, plates were washed at least three times with PBST.

The target in experiment [2] is T1, recombinant human FcγRIIb (Sino …). Description: ELISA, protein immobilized, soluble recombinant FcγRIIb added. The method, then: as §1, §2
The target is the same in experiment [3]. The experiment is described as follows: ELISA, CP immobilized, soluble recombinant human FcγRIIb 1 µg/ml added. The protocol: as §1, §2
On the technique in general: ELISA stands for enzyme-linked immunosorbent assay.

B1: FPST, fusion protein of shrimp tropomyosin, linker (RADAAP), and CP (other)
chain: MGHHHHHHHHHHSSGHIDDDDKMDAIKKKMQAMKLEKDNAMDRADTLEQQNKEANNRAEKSEEEVFGLQKKLQQLENDLDSVQEALLKANQHLEEKDKALSNAEGEVAALNRRIQLLEEDLERSEERLNTATTKLAEASQAADESERMRKVLENRSLSDEERMDALENQLKEARFLAEEADRKYDEVARKLAMVEADLERAEERAETGESKIVELEEELRVVGNNLKSLEVSEEKANQREEAYKEQIKTLTNKLKAAEARAEFAERSVQKLQKEVDRLEDELVNEKEKYKSITDELDQTFSELSGYRADAAPGDALRFNKHYNHDLKFFTTPDKDNDRYPSGNCGLYYSSGWWFDACLSANLNGKYYHQKYRGVRNGIFWGTWPGVSEAHPGGYKSSFKEAKMMIRPKHFKP
notes: Expressed in E. coli; the number of copies is not fixed
B1: the binding result in experiment [1] is on record as “binds”.

B2: FP5, fusion protein of P5, linker, and CP (other)
chain: MGHHHHHHHHHHSSGHIDDDDKKTLTNKLKAAEARAEFAERSVQKLQKEVDRLEDELVNEKEKYKSITDELDQTFSELSGYRADAAPGDALRFNKHYNHDLKFFTTPDKDNDRYPSGNCGLYYSSGWWFDACLSANLNGKYYHQKYRGVRNGIFWGTWPGVSEAHPGGYKSSFKEAKMMIRPKHFKP
notes: Expressed in E. coli; SDS-PAGE indicates a dimeric structure
As for B2, the binding result in experiment [2] is listed as “binds”.

B3: human FGL2 C-terminal peptide (CP), with N-terminal histidin-tag (ligand)
chain: MGHHHHHHHHHHSSGHIDDDDKGDALRFNKHYNHDLKFFTTPDKDNDRYPSGNCGLYYSSGWWFDACLSANLNGKYYHQKYRGVRNGIFWGTWPGVSEAHPGGYKSSFKEAKMMIRPKHFKP
notes: Expressed in E. coli, purified by IMAC; A weaker band of about 30 kDa in SDS-PAGE indicates dimerization; also called his-tagged CP
Take B3: in experiment [3], the binding result is “binds”.

B4: FP1, fusion protein of P1, linker, and CP (other)
chain: MGHHHHHHHHHHSSGHIDDDDKMDAIKKKMQAMKLEKDNAMDRADTLEQQNKEANNRAEKSEEEVFGLQKKLQQLENDLDSVQEALLKANQHLEEKDKALRADAAPGDALRFNKHYNHDLKFFTTPDKDNDRYPSGNCGLYYSSGWWFDACLSANLNGKYYHQKYRGVRNGIFWGTWPGVSEAHPGGYKSSFKEAKMMIRPKHFKP
notes: as for B2
As to B4, the binding result in experiment [2] is given as “binds”.
